Record: PubChem BioAssay AID1053208 (Peter MacCallum Cancer Centre, 2014)

Assay: 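Genes whose silencing cuts survival of bone tumour cells only with doxorubicin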 (primary screen)
System: mouse osteosarcoma cells, early-passage culture from an engineered mouse model of fibroblastic bone tumour
Reagents: siRNA pool against mouse genes, 40 nM
Duration: about 120 h (48 h before drug, then 72 h with drug)
Conditions: doxorubicin 100 nM for 72 h, roughly 30-40% inhibitory dose
Measurement: 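Luminescent ATP signal taken as viability with or without 100 nM doxorubicin for 72 h; mean of two wells set against non-targeting siRNA and turned into robust z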
Direction: viability z-score with doxorubicin: higher = more viable cells under doxorubicin; viability z-score without drug: higher = more viable cells with knock-down alone
Call rule: 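Called active if knock-down leaves viability unchanged without drug (z within -2 to 2) but lowers it with doxorubicin (z at or under -2)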
Here is one part, drawn at random, of about 17,000 reagents. 788 of them (4.7%) were called active. 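Calls rest on z-score classes alone; an extra cut-off of viability at most 70% of control was not applied to them.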 A number with no mark means an inactive call. A reagent listed more than once was tested more than once; the source does not tell the runs apart. Not all columns of the deposit are shown.

target gene	combined z-score class	viability z-score with doxorubicin	viability z-score without drug
Glb1l2 (galactosidase, beta 1-like 2)	no change with or without drug	-0.22	0.51
Il10 (interleukin 10)	no change with or without drug	1.24	0.51
Kctd3 (potassium channel tetramerisation domain containing 3)	no change with or without drug	-0.9	1.18
Fbxo32 (F-box protein 32)	no change with or without drug	0.67	1.18
Synrg (synergin, gamma)	no change with or without drug	0.9	0.17
Zfp3 (zinc finger protein 3)	no change with or without drug	0	-0.17
9530019H20Rik (RIKEN cDNA 9530019H20 gene)	no change with or without drug	0.34	-0.17
Dusp4 (dual specificity phosphatase 4)	no change with or without drug	0.67	-1.52
Zbtb33 (zinc finger and BTB domain containing 33)	no change with or without drug	-0.11	0.67
Zp3r (zona pellucida 3 receptor)	no change with or without drug	-0.45	-1.85
Ptn (pleiotrophin)	high cell count with doxorubicin only	2.25	1.52
Fbxl14 (F-box and leucine-rich repeat protein 14)	no change with or without drug	0.9	0.34
Mtif3 (mitochondrial translational initiation factor 3)	no change with or without drug	0.45	1.18
Cox4i2 (cytochrome c oxidase subunit 4I2)	no change with or without drug	-0.11	-0.51
Aurkb (aurora kinase B)	low cell count without drug only	-0.11	-3.54
Dmrta2	no change with or without drug	0	1.18
Slc26a4	no change with or without drug	-0.11	-1.18
Bloc1s1 (biogenesis of lysosomal organelles complex-1, subunit 1)	no change with or without drug	0.9	-0.34
Slc29a2	high cell count without drug only	1.46	2.36
1700041G16Rik (RIKEN cDNA 1700041G16 gene)	no change with or without drug	1.35	0.67
Or11g7 (olfactory receptor family 11 subfamily G member 7)	no change with or without drug	0.9	0.84
Nae1 (NEDD8 activating enzyme E1 subunit 1)	no change with or without drug	-0.56	-0.51
C030016D13Rik (RIKEN cDNA C030016D13 gene)	no change with or without drug	-0.22	0
Pigyl	no change with or without drug	-0.9	0.84
Slc33a2	no change with or without drug	-1.12	1.01
Ssr2 (signal sequence receptor, beta)	no change with or without drug	-0.45	-0.34
Alyref2 (Aly/REF export factor 2)	low cell count with and without drug	-5.17	-4.89
Ska1 (spindle and kinetochore associated complex subunit 1)	no change with or without drug	-0.22	-1.52
Zfp280b (zinc finger protein 280B)	no change with or without drug	0.9	-0.84
Flacc1 (flagellum associated containing coiled-coil domains 1)	no change with or without drug	0.56	-0.34
Aox1 (aldehyde oxidase 1)	no change with or without drug	0.22	-0.67
Orm2 (orosomucoid 2)	no change with or without drug	-0.67	-0.51
C5ar2 (complement component 5a receptor 2)	no change with or without drug	-0.22	0.17
Eif1 (eukaryotic translation initiation factor 1)	no change with or without drug	-1.24	0.34
Katnbl1 (katanin p80 subunit B like 1)	no change with or without drug	-1.91	-1.18
Cdc42se2 (CDC42 small effector 2)	no change with or without drug	0.67	-1.01
Cdc42se2 (CDC42 small effector 2)	no change with or without drug	1.46	1.35
Arl10 (ADP-ribosylation factor-like 10)	no change with or without drug	0.22	-0.84
D830050J10Rik (RIKEN cDNA D830050J10 gene)	no change with or without drug	0.34	1.52
Cyp2f2 (cytochrome P450, family 2, subfamily f, polypeptide 2)	no change with or without drug	0	-0.51
Krt71 (keratin 71)	low cell count with doxorubicin only (active)	-2.59	-1.69
Crip3 (cysteine-rich protein 3)	no change with or without drug	-0.11	0.67
H2ap (H2A.P histone)	no change with or without drug	-0.9	-0.51
Asf1b (anti-silencing function 1B histone chaperone)	no change with or without drug	-1.35	0.51
Fam234a (family with sequence similarity 234, member A)	no change with or without drug	0.22	0.17
Pcca (propionyl-Coenzyme A carboxylase, alpha polypeptide)	no change with or without drug	1.35	0.51
Nav2 (neuron navigator 2)	high cell count without drug only	0	2.7
Mvb12a (multivesicular body subunit 12A)	no change with or without drug	0.45	-0.51
Nr0b1 (nuclear receptor subfamily 0, group B, member 1)	no change with or without drug	1.24	1.01
Tepsin (TEPSIN, adaptor related protein complex 4 accessory protein)	high cell count without drug only	1.8	2.19
H1f6 (H1.6 linker histone, cluster member)	no change with or without drug	-0.11	0.34
Tas2r114 (taste receptor, type 2, member 114)	no change with or without drug	0.79	0.34
Six4 (sine oculis-related homeobox 4)	no change with or without drug	0.22	-0.17
Rap2b (RAP2B, member of RAS oncogene family)	no change with or without drug	0.56	-0.17
Or8d1b (olfactory receptor family 8 subfamily D member 1B)	no change with or without drug	-1.46	-0.67
Ubr3 (ubiquitin protein ligase E3 component n-recognin 3)	no change with or without drug	-0.9	0.67
Fgf21 (fibroblast growth factor 21)	no change with or without drug	-1.57	0
Bmal1 (basic helix-loop-helix ARNT like 1)	no change with or without drug	-0.45	1.18
Mylip (myosin regulatory light chain interacting protein)	no change with or without drug	-0.9	-1.01
Mrps18b (mitochondrial ribosomal protein S18B)	low cell count without drug only	-0.67	-2.87
3110009E18Rik (RIKEN cDNA 3110009E18 gene)	no change with or without drug	1.69	1.52
Foxp1 (forkhead box P1)	no change with or without drug	-0.22	0.51
Syap1 (synapse associated protein 1)	high cell count with doxorubicin only	2.59	0.51
